Results published in US20220125885A1 (Eli Lilly and Company, priority 2019, published 2022).

Experiment: general procedure: Fmoc solid-phase peptide synthesis; Fmoc-Thr-(tBu)-Wang resin (Advanced Chem Tech), about 0.32 mmol/g; DIC/Oxyma
Conditions: whole synthesis, 220 nm, scale 0.125 mmol, acetate

HSQGTFTSDYSKYLD(Aib)RRAQQFVK(4-Pal)LLST-OH
final HPLC purity: >98%
